In PMC11953442, “PIP2-mediated oligomerization of the endosomal sodium/proton exchanger NHE9” (Nature Communications, 2025) one finds binding data, which are given here for one molecule.

These are yes or no findings as the source states them, for the method shown. Some results given as binding are weak or reduced against the parent protein; the word gives no strength.

The target of this assay is T1, E. coli NhaA WT-like triple mutant (A109T, Q277G, L296M) (E. coli), P13738.
T1 chain: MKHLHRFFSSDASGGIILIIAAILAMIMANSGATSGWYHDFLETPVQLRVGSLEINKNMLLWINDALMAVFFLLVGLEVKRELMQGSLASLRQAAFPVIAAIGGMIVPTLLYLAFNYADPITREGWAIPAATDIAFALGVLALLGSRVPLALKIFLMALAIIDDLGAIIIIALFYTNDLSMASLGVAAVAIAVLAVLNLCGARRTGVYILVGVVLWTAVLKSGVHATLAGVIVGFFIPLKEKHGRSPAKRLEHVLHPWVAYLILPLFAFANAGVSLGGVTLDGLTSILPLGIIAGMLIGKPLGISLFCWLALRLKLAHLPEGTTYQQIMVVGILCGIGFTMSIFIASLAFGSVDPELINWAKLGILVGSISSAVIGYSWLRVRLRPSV
Nature of the assay: cryo-EM structure; NhaA triple-mutant-GFP fusion in DDM with 3 mM cardiolipin (18:1) added, 20 mM Tris-HCl pH 7.5, 150 mM NaCl, 0.03% DDM; three cardiolipins modelled at the dimer interface; both purified. The note with it: remark: other sources report otherwise.

B1: E. coli NhaA WT-like triple mutant (A109T, Q277G, L296M), P13738 1-388 (natural protein)
chain: MKHLHRFFSSDASGGIILIIAAILAMIMANSGATSGWYHDFLETPVQLRVGSLEINKNMLLWINDALMAVFFLLVGLEVKRELMQGSLASLRQAAFPVIAAIGGMIVPTLLYLAFNYADPITREGWAIPAATDIAFALGVLALLGSRVPLALKIFLMALAIIDDLGAIIIIALFYTNDLSMASLGVAAVAIAVLAVLNLCGARRTGVYILVGVVLWTAVLKSGVHATLAGVIVGFFIPLKEKHGRSPAKRLEHVLHPWVAYLILPLFAFANAGVSLGGVTLDGLTSILPLGIIAGMLIGKPLGISLFCWLALRLKLAHLPEGTTYQQIMVVGILCGIGFTMSIFIASLAFGSVDPELINWAKLGILVGSISSAVIGYSWLRVRLRPSV
On to B1, for which the binding entry is given as “binds”.
